Source: PubChem BioAssay AID652243 (Drosophila RNAi Screening Center, 2013)
Test: 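Fly genes required for human androgen receptor driven transcription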 (primary screen). Cell system: Drosophila S2R+ cells. Knock-down reagent: long dsRNA against Drosophila genes. Time to read-out: 72 h (48 h, then 24 h hormone). Challenge: synthetic androgen R1881 at 10 nM for 24 h. Read-out: 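Per-well raw luminescence of the androgen-driven firefly reporter and of the Renilla control, two replicates each, without normalisation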. Direction: firefly reporter light: higher = more light from androgen-responsive reporter; Renilla control light: higher = more constitutive control signal (cell number, transfection). Hit rule: 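Across duplicate plates, a knock-down whose log firefly/Renilla ratio shifted a set fold down or up from the GFP/LacZ control mean was a hit; the downward cut appears as both 1.5 and 3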. Calls: active = hit: reporter lowered or raised; inactive = no hit.
In all, the deposit lists about 24,000 reagents; this is a random part of those that have a named target and a result. In the full data, 246 (1%) were called active. 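Plates not normalised; calls are printed but the firefly/Renilla ratio behind them is not deposited; fold cut for lowering reported inconsistently.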 Raw values vary from plate to plate and are shown uncorrected. The numbers tell different reagents against one gene apart. A plus sign joins genes that one reagent is predicted to hit. The record does not give: the amount of reagent.

gene | dsRNA no. | firefly reporter light, replicate 1 | firefly reporter light, replicate 2 | Renilla control light, replicate 1 | Renilla control light, replicate 2 | call
Rai1 | 1 | 5.24e5 | 4.62e5 | 3.39e6 | 2.24e6 | inactive
Rai1 | 2 | 3.94e5 | 2.67e5 | 1.36e6 | 1.32e6 | inactive
CG7330 | 1 | 2.92e5 | 2.84e5 | 2.35e6 | 2.17e6 | inactive
CG7330 | 2 | 2.45e5 | 1.55e5 | 2.58e6 | 1.67e6 | inactive
CG30384 | 1 | 1.95e5 | 2.41e5 | 1.69e6 | 1.14e6 | inactive
Septin5 | 1 | 1.29e6 | 1.02e6 | 1.99e6 | 1.76e6 | inactive
Septin5 | 2 | 6.80e5 | 5.54e5 | 1.24e6 | 1.41e6 | inactive
CG34430 | 1 | 3.79e5 | 3.59e5 | 1.85e6 | 1.97e6 | inactive
tbc | 1 | 20872 | 10874 | 1.59e5 | 89933 | active
tbc | 2 | 6.54e5 | 9.59e5 | 9.82e5 | 1.39e6 | inactive
tbc | 3 | 3.64e5 | 4.29e5 | 1.12e6 | 9.62e5 | inactive
shn | 1 | 1.14e5 | 1.21e5 | 2.31e5 | 2.97e5 | inactive
shn | 2 | 7.92e5 | 5.88e5 | 1.98e6 | 1.97e6 | inactive
Tre1 | 1 | 2.20e5 | 2.78e5 | 1.82e6 | 1.82e6 | inactive
Tre1 | 2 | 3.18e5 | 7.57e5 | 1.06e6 | 1.58e6 | inactive
CG3630 | 1 | 63906 | 70824 | 5.76e5 | 4.88e5 | inactive
CG3630 | 2 | 3.69e5 | 3.56e5 | 9.80e5 | 1.20e6 | inactive
Arpc1 | 1 | 1.30e6 | 9.66e5 | 2.21e6 | 1.37e6 | inactive
Arpc1 | 2 | 5.13e5 | 4.36e5 | 9.31e5 | 9.31e5 | inactive
CG32833 | 1 | 1.35e6 | 2.61e5 | 1.90e6 | 5.81e5 | inactive
CG17141 | 1 | 1.54e5 | 79264 | 2.03e6 | 1.55e6 | inactive
Srpk79D | 1 | 47520 | 90934 | 6.46e5 | 4.98e5 | inactive
Srpk79D | 2 | 46692 | 23406 | 1.78e5 | 1.79e5 | inactive
Srpk79D | 3 | 5.63e5 | 3.31e5 | 1.50e6 | 1.14e6 | inactive
Srpk79D | 4 | – | – | – | – | inactive
OS9 + Hf | 1 | 9.48e5 | 1.07e6 | 1.19e6 | 1.26e6 | inactive
Prosalpha1R + Prosalpha1 | 1 | 1.12e6 | 1.26e6 | 1.38e6 | 1.78e6 | inactive
Prosalpha1R + Prosalpha1 | 2 | 7.87e5 | 5.53e5 | 1.11e6 | 1.13e6 | inactive
APC7 | 1 | 1.42e5 | 59730 | 8.45e5 | 5.85e5 | inactive
APC7 | 2 | 4.39e5 | 3.38e5 | 6.99e5 | 4.29e5 | inactive
Osi5 | 1 | 94009 | 1.18e5 | 2.19e6 | 2.62e6 | inactive
Nep6 | 1 | 1.01e5 | 1.06e5 | 4.27e5 | 3.72e5 | inactive
CG17698 | 1 | 1.25e5 | 1.72e5 | 2.67e6 | 1.88e6 | inactive
CG17698 | 2 | – | – | – | – | inactive
CG14277 | 1 | 2.51e5 | 1.87e5 | 2.34e6 | 1.57e6 | inactive
Gr32a | 1 | 2.05e5 | 3.05e5 | 2.13e6 | 2.32e6 | inactive
Ass | 1 | 2.73e5 | 5.55e5 | 7.79e5 | 1.92e6 | inactive
CG30357 | 1 | 4.55e5 | 9.87e5 | 1.62e5 | 2.16e5 | inactive
CG43740 | 1 | 8.47e5 | 8.78e5 | 7.78e5 | 9.14e5 | inactive
CG43740 | 2 | 8.35e5 | 9.29e5 | 1.70e6 | 1.65e6 | inactive
